According to PubChem BioAssay AID1508600 (Functional Genomics Laboratory (NCATS/FGL), 2020):
In all, about 53,000 sequences went through this assay and about 3,700 (7%) were called active.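 Rule for the calls: active = gene knockdowns whose robust z-score for IL-1 alpha signal is at least 2 or at most -2, so actives lie on both sides; inactive = the rest.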 Some of the results follow.

Assay: Components of the Cytosolic LPS Sensing Pathway: Gene Identification via Genome-wide siRNA Screen;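 note: robust z of the log signal after scaling to non-targeting control siRNA wells of the plate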
Conditions: RAW264.7 macrophages, IL-1a HTRF, actives lie on both sides, screened at 100 nM (by protocol), cells primed 5 h with Pam3CSK4 first
In short: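 RAW264.7; siRNA 100 nM final, RNAiMAX, 48h 37 degrees C; Pam3CSK4 5 h; LipidA + TransIT-TKO 24 h; IL-1a HTRF; CellTiter-Glo viability; robust z vs negative-control median.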

z-score, active:
GGACCUAAACAACGUGUUGTT against Klf2 2.74
GGACUGCUUUUUUUACUCATT against Mta2 -2.07
GCUCUCCUUGAUCGAGAGATT against Spryd7 -2.65
GGCAAUCAUUGGACUAUACTT against Nckap1 -2.81
GGACCUUUUGUGAACUUACTT against E2f3 4.53

z-score, inactive:
GGAAGAAGCAAAGAGGUCCTT against Foxm1 0.177
CGUACAAAGGUAGUAUACCTT against Pi4k2a 1.1
CGGCUCGUUGAAGAACAAATT against Afap1 -1.32
GGAUGUGAAUGAGUGUGAGTT against Fbln7 0.368
GGUUCCUUAAUCACUUUGCTT against Ndufa9 -0.139
GCAAUGAAUUCUAUUAUGGTT against Plrg1 -1.51
GGAUUAGUCAUCAUCUUCATT against Gabrb2 0.134
GUCAUGCUUACUGUUCAGATT against Vmn1r38 -0.722
CCAUUCAAGUAAAUGAACCTT against Efhc2 0.149
GCAUCCCAAGCUUAAAGCGTT against Malt1 0.635
CCCAGUGUGAACAGAGGCATT against Xlr3a -1.12
GCAUAAACAGUGAAGCCACTT against Suv39h2 -0.994
GGAGACAGAAAGAGAAAAGTT against Pou3f2 -0.578
GGUGAACCAAAGACACUUCTT against Pcdhgc4 -0.0248
GGGUAGGAAACAAACACAGTT against Cox11 -0.234
GGACCCAGAUGUGACUGAGTT against Svil 0.242
GGAAUUAUCUGAGCCUGUGTT against Fam193b -0.0725
GACUGUGUUUAUUCCUCUGTT against Olfr1450 0.843
AGAUGAUGAAAGCUUCUGCTT against Cyp2c40 -0.0568
GGAGGUAGUAGAUUCUUCCTT against Dnase1l1 -1.39
GCUAACCAAAGUUUUGAGATT against Rbm11 1.37
GGGAGAAAAUUGGCUUAGATT against Dclre1b 0.424
CCGCUCUGUUUCAAUCCUGTT against Atp8b5 -0.918
GCUGGAGAUUCGUUACCGCTT against Cxxc1 1.22
GGAAAUCUUUCUGACAGUCTT against Atoh8 0.69
GCGAAAGCAGCUGUCGGAATT against Nkx3-1 0.324
GGAUCUCAGAAGCUUAGUUTT against Atxn7 0.127
GGUUGUUUCACCAAUAGUUTT against Idi1 -0.454
GGUGCUCCGAACAAGUUGATT against Cmc1 0.493
GGCCACCAAGACCAAUGAUTT against Akap8 0.154
GCCAAAUCAGGGACUGCUATT against Prkaa1 1.21
GGACAGUGCCACUUAAACCTT against Tbxa2r -1
GGCACGUCUCUAUUCAAGATT against Rab21 0.747
GCAUCAGAUAGAGAUUGCUTT against Acnat2 -0.512
GCUGUAUUUCUGUUAACACTT against Pacs2 -0.411
GGCCAACAGGUGCAAGAAATT against Rspo4 -1.32
GGAGAAGUUGGCAAAGAUGTT against Col9a3 0.322
GGAGAAAUGGUACAAGGUCTT against Nxf2 0.637
GGAGAGCACGAUAACAAGATT against Fabp5 1.19
GCUGGCUUUAAAAAUAUCUTT against Nt5dc3 0.174
GGGAGGUAGUCGUAGAAAUTT against Trp53i11 -0.607
GGUUACCUAUACAUUUCAGTT against Erbb2 0.579
GGGCAUGGAGGAGUACAUUTT against Nat8f1 0.27
GGAGGAAGAAGAGAAAGCCTT against Ppm1f -1.05
GGCUUUAAAAGCCUAUAUGTT against 4933400A11Rik 1.35
GGCUUGUUUAUGUGUAAUUTT against Bccip 1.18
GGAUCCUGACAACCCUGUGTT against Sppl2b -1.32
GCAAGAGUUACUUCUUAUUTT against Hdac9 0.298
CCGCUUUUCCUGCCUCUGUTT against Dlk2 0.418
GGAUAAAAACUACAAAGAGTT against Cmpk2 -0.563
GCCCUGCACCAGAAAAACATT against Stk40 -0.662
GGAUGUCUACUUUGUAUCUTT against Tph1 -0.697
GGACAUAGAUAAAUGCAGATT against Med10 -0.984
GCCUGAUACGUUUUUUAAGTT against Ccr1l1 -1.29
CCUAGUCUAGCUGACUUGCTT against Eppin 1.41
GAUGUCUUCUAUGGAGGCATT against Olfr60 0.0532
GGACAAUCACUCCAGGAGUTT against Gzmg 1.83
GAGAUUGCCAAAGACAAAATT against Vmn1r212 -0.743
GGCUGAAAAAUGCUUGAUUTT against Dhdds -1.14
GGAAGCUUUCCAAUGGCUGTT against Cyp2c29 -0.444
GGCCAAUAAAGGAAAGAAATT against 4930578I06Rik -0.38
GGCCAUUUUAUUGUAUGUUTT against Pdik1l -0.415
GGACAGAGAACAGUUGAUGTT against Mrps9 0.807

Taken from above (five entries):
z-score, inactive:
GGACAAUCACUCCAGGAGUTT against Gzmg 1.83
GAGAUUGCCAAAGACAAAATT against Vmn1r212 -0.743
GGCUGAAAAAUGCUUGAUUTT against Dhdds -1.14
GGAAGCUUUCCAAUGGCUGTT against Cyp2c29 -0.444
GGCCAAUAAAGGAAAGAAATT against 4930578I06Rik -0.38
